PubChem BioAssay AID504834 (National Center for Advancing Translational Sciences (NCATS), 2011)
Values joined by “and” are separate entries in the source; they are usually repeats but may differ in a detail not shown here. Identical values can stand only once. Screen size: about 320,000 compounds; about 22,000 (6.9%) were called active. Inconclusive means that the source gave no clear call. Such entries were picked first, then a sample of the others. Calls come from the whole dose curve; as a rule, active = well fitted inhibition curve with a large enough effect; inconclusive = small, poorly fitted or top-dose-only effect, or another doubt; inactive = no such curve, though single readings can be large or run the other way. Potencies beside an inconclusive call are fits to weak or partial responses and may not hold up.

Assay: Primary qHTS for delayed death inhibitors of the malarial parasite plastid, 96 hour incubation
Details: P. falciparum luciferase reporter growth; series mostly up to 28.7 µM; activity change, negative = inhibition: at the top concentration
Method in brief: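 Parasite growth measured via integrated firefly luciferase reporter in P. falciparum. Infected erythrocytes at 2% hematocrit, 0.05% parasitemia final were treated 96 hours at 37 C under 5% CO2, and luminescence was read.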
% is set by controls: 0 for no effect and ±100 for the full control effect; potency is the fitted concentration of half-maximal effect.

| Compound | Potency | activity change, negative = inhibition |
| --- | --- | --- |
| C#CCOC(=O)CCCNc1ccc([N+](=O)[O-])cc1[N+](=O)[O-] | inconclusive: 18.5 µM [inhibitor, single point] | – |
| CCOc1ccc(C(=O)N2CCN(S(=O)(=O)c3cccs3)CC2)c(OCC)c1 | – | inactive: 4% |
| O=C(CN(c1ccccc1)S(=O)(=O)c1ccccc1)NCCSc1nc2ccccc2s1 | inconclusive: 0.0208 µM [inhibitor, full curve, poor fit] | – |
| Cc1c(C(C)(C)C)sc(=NC(=O)c2ccccc2O)n1C | inconclusive: 11.7 µM [inhibitor, single point] | – |
| CCC(Sc1nc(C)cc(=O)[nH]1)C(=O)Nc1nc2c(s1)CCCC2 (stereo not given) | inconclusive: 1.17 µM [inhibitor, partial curve, poor fit] | – |
| COc1ccc(CCNC(=S)N2CCN(S(=O)(=O)c3ccc(Cl)cc3)CC2)cc1 | inconclusive: 18.5 µM [inhibitor, single point] | – |
| COC(=O)c1ccc(C(=O)OC)c(NC(=S)N2CC(C)CC(C)C2)c1 (stereo not given) | inconclusive: 18.5 µM [inhibitor, single point] | – |
| CSc1cccc(NC(=S)N(CCCN2CCC(C)CC2)Cc2cccs2)c1 | inconclusive: 18.5 µM [inhibitor, single point] | – |
| COc1ccc(C(=O)Nc2oc(-c3ccccc3)c(-c3ccccc3)c2C#N)cc1 | – | inactive: 7.1% |
| COc1ccccc1CNC(=O)CCN1C(=O)c2ccccc2C1=O | – | inactive: 60.6% |
| O=C(CNC(=O)c1ccc(Br)o1)NNC(=O)c1ccccc1F | – | inactive: 0.665% |
| CC1CN(C(=O)c2cc3cc(Br)ccc3[nH]2)CC(C)O1 (stereo not given) | inconclusive: 11.7 µM [inhibitor, partial curve] | – |
| O=C(c1ccccc1Sc1c(Cl)cccc1[N+](=O)[O-])N1CCOCC1 | inconclusive: 18.5 µM [inhibitor, single point] | – |
| CC1CCCC(C)N1CCCNC(=O)c1ccc2c(c1)NC(=O)c1ccccc1S2 (stereo not given) | inconclusive: 18.5 µM [inhibitor, single point] | – |
| O=C(CCN1CCCCC1)Nc1cccc(Cl)c1 | inconclusive: 0.294 µM [inhibitor, partial curve, poor fit] | – |
| COc1ccc(C(=O)NC(=S)Nc2cc3oc4ccccc4c3cc2OC)cc1 | – | inactive: 47% |
| COc1ccc(N2CCN(CCCn3c(=S)[nH]c4ccccc4c3=O)CC2)cc1 | inconclusive: 11.7 µM [inhibitor, single point] | – |
| O=C1CSC(c2ccccn2)N1c1ccc(Cl)c(Cl)c1 (stereo not given) | inconclusive: 2.08 µM [inhibitor, full curve, poor fit] | – |
| O=C(C1CCN(c2nc3ccc(Br)cc3s2)CC1)N1CCC2(CC1)OCCO2 | active: 4.65 µM | – |
| Cc1cccn2c(=O)c3cc(C(=O)NCC(C)C)sc3nc12 | inconclusive: 2.33 µM [inhibitor, full curve] | – |
| c1cc(-c2nnc(-c3ccncc3)o2)ccn1 | – | inactive: 137% |
| O=C(O)CCNC(=O)COc1ccc2c3c(c(=O)oc2c1)CCCC3 | inconclusive: 0.0928 µM [inhibitor, full curve, poor fit] | – |
| COc1ccc(S(=O)(=O)N2CCCC2CNC(=O)C(=O)NCc2ccccc2Cl)cc1 (stereo not given) | active: 9.28 µM | – |
| CC(=O)CSc1nc2c(c(=O)[nH]c(=O)n2C)n1Cc1cccc(Br)c1 | – | inactive: 43.8% |

| Compound | Potency | activity change, negative = inhibition |
| --- | --- | --- |
| Cc1cc(Cl)ccc1NC(=S)NCCCO | – | inactive: 227% |
| CC(/C=N/NC(=O)c1cc(-c2cccnc2)nc2c1c(C)nn2-c1ccccc1)=C\c1ccccc1 | active: 2.94 µM | – |
| O=C(NN=C1CCCC1)c1ccc(Br)cc1 | – | inactive: 171% |
| COc1ccccc1-c1cn[nH]c1-c1ccc(O)cc1O | inconclusive: 8.28 µM [inhibitor, partial curve, poor fit] | – |
| O=C(Nc1ccccc1N1CCOCC1)c1ccc(F)c(S(=O)(=O)N2CCOCC2)c1 | active: 2.08 µM | – |
| Cc1cc(C)c[n+](CC(=O)c2ccccc2)c1 | inconclusive: 18.5 µM [inhibitor, single point] | – |
| O=C(O)CNC(=O)c1ccccc1I | – | inactive: 12.4% |
| CCOC(=O)CSc1nnc(CNc2cccc(Cl)c2)n1C | inconclusive: 6.57 µM [inhibitor, partial curve, poor fit] | – |
| COc1ccc(/C=C/c2c([N+](=O)[O-])c(=O)n(C)c(=O)n2C)cc1OC | – | inactive: -1.44% |
| O=C(Cc1ccc([N+](=O)[O-])cc1)N1CCCCCC1 | inconclusive: 18.5 µM [inhibitor, single point] | – |
| COc1ccc(S(=O)(=O)n2nc(-c3ccc(Cl)cc3)cc2N)cc1 | inconclusive: 3.29 µM [inhibitor, full curve, poor fit] | – |
| COc1ccc(CCNC(=O)Cn2nnc(-c3ccc(N(C)C)cc3)n2)cc1OC | active: 4.15 µM | – |
| N#Cc1ccccc1S(=O)(=O)N1CCN(C(=O)c2cc(-c3ccccc3)nn2-c2ccccc2)CC1 | inconclusive: 14.7 µM [inhibitor, partial curve, poor fit] | – |
| O=C(Nc1ccc2nn(-c3ccccc3)nc2c1)c1ccc(Br)o1 | – | inactive: 63.9% |
| COc1cc(C(=O)Nc2cccc(-n3cnnn3)c2)cc(Cl)c1OC | inconclusive: 9.28 µM [inhibitor, partial curve] | – |
| COc1ccc(C(C)=O)cc1CC(=O)N(Cc1ccccc1)c1ccccc1 | inconclusive: 11.7 µM [inhibitor, single point] | – |
| Cc1cc(SCC(=O)Nc2cccc(S(=O)(=O)N3CCOCC3)c2)nc2ccccc12 | inconclusive: 10.4 µM [inhibitor, partial curve, poor fit] | – |
| Cc1cc(C(=O)Nc2ccccc2C(=O)O)oc1C | – | inactive: 55.8% |
| O=c1oc(-c2cccs2)nc2sc3c(c12)CCCC3 | – | inactive: 0.723% |
| CCCCn1nnnc1SCC(=O)NNC(=O)C1CCCCC1 | inconclusive: 18.5 µM [inhibitor, single point] | – |
| CCOC(=O)c1sc(=S)n(C)c1NC(=O)c1ccc(F)cc1 | inconclusive: 11.7 µM [inhibitor, single point] | – |
| COc1ccc(/C=N/NC(=O)c2ccco2)cc1Cn1nc(C)c([N+](=O)[O-])c1C | – | inactive: -0.359% |
| O=C(COC(=O)c1ccc(S(=O)(=O)Nc2ccccc2)cc1)NCc1ccco1 | inconclusive: 0.415 µM [inhibitor, full curve, poor fit] | – |
| O=C(c1ccccc1-n1cccc1)N1N=C(C(F)F)CC1(O)C(F)F (stereo not given) | inconclusive: 9.28 µM [inhibitor, single point] | – |

| Compound | Potency | activity change, negative = inhibition |
| --- | --- | --- |
| CC1CC(C)CN(C(=O)c2ccc3c(c2)N(Cc2ccccc2)CCS3)C1 (stereo not given) | inconclusive: 18.5 µM [inhibitor, single point] | – |
| CCN1CCN(C(=O)CN(CC)S(=O)(=O)c2ccc3ccccc3c2)CC1 | inconclusive: 16.5 µM [inhibitor, partial curve, poor fit] | – |
| CCc1ccc(NC(=O)C(C)n2nc(C)c([N+](=O)[O-])c2C)cc1 (stereo not given) | inconclusive: 8.28 µM [inhibitor, partial curve, poor fit] | – |
| O=C(CCNC(=O)N1CC(=O)Nc2ccccc21)NCCc1cccc(F)c1 | inconclusive: 18.5 µM [inhibitor, single point] | – |
| Cc1ccc(C)c(Oc2cc(NN3CCCCC3)c([N+](=O)[O-])cc2[N+](=O)[O-])c1 | – | inactive: 52.7% |
| CCN(CC)S(=O)(=O)c1ccc(C)c(NC(=O)CN2CCN(Cc3ccccc3)CC2)c1 | inconclusive: 6.57 µM [inhibitor, partial curve] | – |
| CCOC(=O)c1cn(Cc2c(C)c(C)c(C)c(C)c2C)nn1 | inconclusive: 0.294 µM [inhibitor, full curve, poor fit] | – |
| COc1ccc(-c2csc3ncnc(N4CCN(c5cccc(OC)c5)CC4)c23)cc1 | inconclusive: 11.7 µM [inhibitor, single point] | – |
| Cc1cc2c3c(c1C)C1(C(=O)N3C(C)(C)CC2C)C(C#N)=C(N)OC2=C1C(=O)CC(C)(C)C2 (stereo not given) | active: 9.28 µM | – |
| O=Cc1cn(CCOc2ccccc2F)c2ccccc12 | inconclusive: 10.4 µM [inhibitor, partial curve, poor fit] | – |
| NC(=O)C1CCN(c2nc(-c3ccc4ccccc4c3)cs2)CC1 | inactive and inconclusive: 16.5 µM [inhibitor, single point] | – |
| Cc1cccc(Cn2cnc3c(NS(C)(=O)=O)c(C)c(C)cc32)c1 | inconclusive: 1.31 µM [inhibitor, partial curve] | – |
| CN(C)S(=O)(=O)c1ccc(C(=O)NCCN=C2NS(=O)(=O)c3ccccc32)cc1 | – | inactive: 34.3% |
| O=C(NCC1CCCCC1)c1cccc([N+](=O)[O-])c1 | inconclusive: 13.1 µM [inhibitor, partial curve, poor fit] | – |
| O=c1ccc(-c2ccccc2)no1 | inconclusive: 2.33 µM [inhibitor, full curve, poor fit] | – |
| O=C(NCC1COc2ccccc2O1)c1cc2ccccc2o1 (stereo not given) | inconclusive: 3.29 µM [inhibitor, full curve] | – |
| CC1CCc2onc(C(=O)O)c2C1 (stereo not given) | – | inactive: 0% |
| COC(=O)c1sccc1NC(=O)c1csc(C)c1 | inconclusive: 18.5 µM [inhibitor, single point] | – |
| C=CCNC(=O)COc1ccc(S(=O)(=O)Nc2ccc(OCC)cc2)cc1 | inconclusive: 10.4 µM [inhibitor, partial curve, poor fit] | – |
| CC(/C=N/N1C(=O)CSC1=S)=C\c1ccccc1 | – | inactive: 10.8% |
| COCCN1CCn2c(nc3cc(NS(C)(=O)=O)ccc32)C1 | – | inactive: 46.5% |
| Cc1ccc(S(=O)(=O)NC(CC(C)C)C(=O)N2CCC(C)CC2)cc1 (stereo not given) | inconclusive: 8.28 µM [inhibitor, partial curve] | – |
